In article PMC4385835:
Where two headings read alike, the source gives them in different places. No constants are given. Whether binding was seen depends on the method and setting. In cells and extracts the contact can be indirect. Some entries that bind do so weakly or less than the wild type. Blank lines part the entries; values can stand above or below the molecule they belong to.

Amino acid sequences for entries named in this document (tags omitted).
UniProt P05556: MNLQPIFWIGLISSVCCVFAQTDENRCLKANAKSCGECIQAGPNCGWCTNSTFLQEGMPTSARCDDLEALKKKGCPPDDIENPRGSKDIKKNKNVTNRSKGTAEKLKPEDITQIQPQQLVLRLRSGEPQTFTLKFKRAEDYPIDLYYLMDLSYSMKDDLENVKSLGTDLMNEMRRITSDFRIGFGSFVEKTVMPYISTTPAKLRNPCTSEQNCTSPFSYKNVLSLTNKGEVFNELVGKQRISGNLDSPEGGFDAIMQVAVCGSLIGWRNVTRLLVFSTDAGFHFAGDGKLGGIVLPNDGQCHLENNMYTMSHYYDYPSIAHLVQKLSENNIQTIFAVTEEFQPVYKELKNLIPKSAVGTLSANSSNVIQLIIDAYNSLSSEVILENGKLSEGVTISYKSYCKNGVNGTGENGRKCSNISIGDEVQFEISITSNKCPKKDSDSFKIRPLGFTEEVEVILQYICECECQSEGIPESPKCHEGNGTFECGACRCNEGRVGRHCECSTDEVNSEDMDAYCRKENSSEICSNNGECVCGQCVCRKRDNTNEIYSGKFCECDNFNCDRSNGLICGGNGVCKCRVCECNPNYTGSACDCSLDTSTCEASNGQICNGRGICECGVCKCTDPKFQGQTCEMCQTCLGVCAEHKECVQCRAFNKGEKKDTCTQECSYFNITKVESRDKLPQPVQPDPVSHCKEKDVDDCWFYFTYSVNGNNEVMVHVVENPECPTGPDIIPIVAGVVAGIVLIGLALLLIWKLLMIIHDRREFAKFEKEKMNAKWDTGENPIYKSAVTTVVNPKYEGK
UniProt P27487: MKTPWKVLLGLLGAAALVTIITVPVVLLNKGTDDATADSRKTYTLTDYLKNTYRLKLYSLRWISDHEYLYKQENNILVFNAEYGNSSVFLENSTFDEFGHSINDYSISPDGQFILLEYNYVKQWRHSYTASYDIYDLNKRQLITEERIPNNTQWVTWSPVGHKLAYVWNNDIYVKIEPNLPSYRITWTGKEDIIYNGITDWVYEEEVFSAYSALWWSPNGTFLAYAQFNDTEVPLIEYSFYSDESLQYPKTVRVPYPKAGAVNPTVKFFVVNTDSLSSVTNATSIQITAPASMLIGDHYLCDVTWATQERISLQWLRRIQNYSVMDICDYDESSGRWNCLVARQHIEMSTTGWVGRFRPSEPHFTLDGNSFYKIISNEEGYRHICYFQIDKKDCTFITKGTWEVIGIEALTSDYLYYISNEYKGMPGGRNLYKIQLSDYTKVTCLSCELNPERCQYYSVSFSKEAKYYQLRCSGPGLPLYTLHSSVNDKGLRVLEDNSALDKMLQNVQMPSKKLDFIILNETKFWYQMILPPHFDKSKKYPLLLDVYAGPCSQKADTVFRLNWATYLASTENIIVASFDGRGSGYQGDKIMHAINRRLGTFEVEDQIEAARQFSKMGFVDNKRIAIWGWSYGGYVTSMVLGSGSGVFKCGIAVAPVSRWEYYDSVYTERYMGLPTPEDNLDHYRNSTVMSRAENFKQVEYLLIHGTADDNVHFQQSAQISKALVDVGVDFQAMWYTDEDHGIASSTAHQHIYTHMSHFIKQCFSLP

How the values were obtained:
[1] = biological target: T1, EpCAM (human (endogenous in HT29 and SW948)) (UniProt P16422); test: co-IP; lysates of HT29 and SW948 wt and cld7 knock-down cells (HEPES buffer, 1% Lubrol or 1% TritonX-100, 4°C) precipitated with control IgG, anti-EpC, anti-cld7 or anti-Tspan8 and ProteinG-Sepharose; Western blot; precipitates also separated by sucrose density gradient (Fig.1E,1F,4D)
T1 sequence: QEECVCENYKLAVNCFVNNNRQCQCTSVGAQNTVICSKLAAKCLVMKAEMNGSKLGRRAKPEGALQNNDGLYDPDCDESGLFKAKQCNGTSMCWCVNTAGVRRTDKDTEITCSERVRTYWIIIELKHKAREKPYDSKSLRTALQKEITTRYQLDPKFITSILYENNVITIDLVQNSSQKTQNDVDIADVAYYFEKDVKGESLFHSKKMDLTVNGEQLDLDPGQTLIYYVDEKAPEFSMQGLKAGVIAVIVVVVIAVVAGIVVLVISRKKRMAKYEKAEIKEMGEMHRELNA

[2] = biological target: T2, claudin-7 (human (endogenous in HT29 and SW948)) (UniProt O95471); test: as above
T2 sequence: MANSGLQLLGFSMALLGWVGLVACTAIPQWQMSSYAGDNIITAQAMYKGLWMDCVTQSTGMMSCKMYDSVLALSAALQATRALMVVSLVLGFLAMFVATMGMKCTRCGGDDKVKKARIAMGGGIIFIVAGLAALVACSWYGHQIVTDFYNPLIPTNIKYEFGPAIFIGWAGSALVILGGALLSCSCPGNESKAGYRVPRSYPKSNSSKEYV

[3] = biological target: CD29 (human (endogenous in HT29)) (UniProt P05556); test: co-IP; lysates of PMA-treated HT29 wt and holoclone-derived cells precipitated with control IgG, anti-α3 or anti-β1 and ProteinG-Sepharose; blotted with anti-cld7 and anti-p-cld7 (Fig.3F)
[4] = biological target: T2, claudin-7 (human (endogenous in HT29 and SW948)); test: co-IP; lysates of HT29 and SW948 wt and cld7 knock-down cells (HEPES buffer, 1% Lubrol or 1% TritonX-100, 4°C) precipitated with control IgG, anti-EpC, anti-cld7 or anti-Tspan8 and ProteinG-Sepharose; Western blot; precipitates also separated by sucrose density gradient (Fig.1E,1F,4D); remark: listed apart in the source
[5] = biological target: T3, Tspan8 (human (endogenous in HT29 and SW948)) (UniProt P19075); test: as above
T3 sequence: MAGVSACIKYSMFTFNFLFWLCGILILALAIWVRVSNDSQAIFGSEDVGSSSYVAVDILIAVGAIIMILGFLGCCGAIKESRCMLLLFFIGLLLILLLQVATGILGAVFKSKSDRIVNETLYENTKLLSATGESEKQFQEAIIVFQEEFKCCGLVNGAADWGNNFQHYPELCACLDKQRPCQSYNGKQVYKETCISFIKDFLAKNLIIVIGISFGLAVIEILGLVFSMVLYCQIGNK

Molecule: CD26 (from UniProt P27487 1-766) (enzyme)
binding [1]: no binding | binding [2]: binds

B3: EpCAM (protein, UniProt P16422 24-314)
chain: T1 sequence
binding [4]: binds | binding [5]: binds

Continued, values first:

binding [3]: binds
B1: phosphorylated claudin-7 (protein, UniProt O95471 1-211)
chain: T2 sequence
modifications: phosphorylated (detected with anti-p-cld7; site not given)

binding [3]: binds
B2: claudin-7 (protein, UniProt O95471 1-211)
chain: T2 sequence
